Measurements from paper PMC5955423.
Where a chain is given by its changes, count along the chain named. Names and notes keep the numbering of the source. No constants are given. Whether binding was seen depends on the method and setting. Binding seen in cells or lysates may run through a third protein. Some entries that bind do so weakly or less than the wild type. Values belong to the binder of their own block, whether it stands above or below them.

Protein sequences, listed by entry. Tags and fused reporters are not part of them.
UniProt Q13042: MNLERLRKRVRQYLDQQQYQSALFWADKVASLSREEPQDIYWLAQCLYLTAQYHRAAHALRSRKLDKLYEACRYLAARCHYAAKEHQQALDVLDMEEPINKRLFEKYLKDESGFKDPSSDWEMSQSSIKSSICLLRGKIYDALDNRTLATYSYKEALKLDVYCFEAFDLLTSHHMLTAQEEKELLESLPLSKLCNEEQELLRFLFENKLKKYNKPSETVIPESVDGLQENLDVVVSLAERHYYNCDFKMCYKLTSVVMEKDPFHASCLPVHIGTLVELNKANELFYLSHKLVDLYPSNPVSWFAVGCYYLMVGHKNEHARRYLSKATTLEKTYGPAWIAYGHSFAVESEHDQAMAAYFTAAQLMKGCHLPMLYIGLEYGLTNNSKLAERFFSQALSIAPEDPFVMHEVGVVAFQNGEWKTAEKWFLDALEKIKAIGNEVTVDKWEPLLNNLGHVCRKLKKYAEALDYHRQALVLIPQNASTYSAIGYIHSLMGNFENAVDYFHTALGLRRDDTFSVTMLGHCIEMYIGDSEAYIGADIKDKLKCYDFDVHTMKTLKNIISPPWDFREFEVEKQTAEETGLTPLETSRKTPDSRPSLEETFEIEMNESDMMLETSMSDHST

Target: CDC16 (UniProt Q13042)
Assay: co-IP; extracts of transfected A549 cells, without SPC treatment; lysates incubated with anti-CDC16 or anti-YDJC antibody overnight at 4°C, protein A/G magnetic beads 1 h at room temperature, eluates analysed by Western blot

- binding: binds
B1: YdjC chitooligosaccharide deacetylase homolog (YDJC), wild type (enzyme, UniProt A8MPS7 1-323)
chain: MSRPRMRLVVTADDFGYCPRRDEGIVEAFLAGAVTSVSLLVNGAATESAAELARRHSIPTGLHANLSEGRPVGPARRGASSLLGPEGFFLGKMGFREAVAAGDVDLPQVREELEAQLSCFRELLGRAPTHADGHQHVHVLPGVCQVFAEALQAYGVRFTRLPLERGVGGCTWLEAPARAFACAVERDARAAVGPFSRHGLRWTDAFVGLSTCGRHMSAHRVSGALARVLEGTLAGHTLTAELMAHPGYPSVPPTGGCGEGPDAFSCSWERLHELRVLTAPTLRAQLAQDGVQLCALDDLDSKRPGEEVPCEPTLEPFLEPSLL

- binding: binds
B2: YDJC D13A (deacetylase dominant negative mutant) (enzyme, UniProt A8MPS7 1-323)
chain: B1 chain with D13A
